Assay results reported in article PMC8205142.
These are yes or no findings as the source states them, for the method shown. Some entries that bind do so weakly or less than the wild type.

Chains of the proteins cited; added tags and fusions are not shown. Residues count along the entry.
UniProt P02769, residues 25-607: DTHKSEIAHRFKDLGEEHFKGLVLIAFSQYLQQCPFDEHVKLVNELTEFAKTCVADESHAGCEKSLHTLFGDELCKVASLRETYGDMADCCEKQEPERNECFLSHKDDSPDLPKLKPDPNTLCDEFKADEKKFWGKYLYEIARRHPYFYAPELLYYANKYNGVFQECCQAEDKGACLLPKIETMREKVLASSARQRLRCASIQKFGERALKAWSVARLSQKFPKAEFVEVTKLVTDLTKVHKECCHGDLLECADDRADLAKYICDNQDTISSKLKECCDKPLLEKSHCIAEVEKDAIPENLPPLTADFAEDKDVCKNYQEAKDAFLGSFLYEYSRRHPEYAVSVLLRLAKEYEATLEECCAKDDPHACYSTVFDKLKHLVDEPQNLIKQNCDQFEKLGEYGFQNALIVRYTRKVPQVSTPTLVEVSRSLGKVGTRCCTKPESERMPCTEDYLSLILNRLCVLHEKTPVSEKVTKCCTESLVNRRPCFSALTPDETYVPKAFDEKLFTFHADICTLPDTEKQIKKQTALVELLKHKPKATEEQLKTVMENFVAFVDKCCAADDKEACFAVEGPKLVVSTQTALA
UniProt P09429: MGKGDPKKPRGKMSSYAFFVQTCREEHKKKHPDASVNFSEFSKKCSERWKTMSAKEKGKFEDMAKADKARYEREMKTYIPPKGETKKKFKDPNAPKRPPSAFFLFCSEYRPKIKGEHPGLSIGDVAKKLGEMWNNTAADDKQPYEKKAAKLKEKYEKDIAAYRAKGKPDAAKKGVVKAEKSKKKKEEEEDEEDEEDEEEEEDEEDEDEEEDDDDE
UniProt Q15109, residues 23-342: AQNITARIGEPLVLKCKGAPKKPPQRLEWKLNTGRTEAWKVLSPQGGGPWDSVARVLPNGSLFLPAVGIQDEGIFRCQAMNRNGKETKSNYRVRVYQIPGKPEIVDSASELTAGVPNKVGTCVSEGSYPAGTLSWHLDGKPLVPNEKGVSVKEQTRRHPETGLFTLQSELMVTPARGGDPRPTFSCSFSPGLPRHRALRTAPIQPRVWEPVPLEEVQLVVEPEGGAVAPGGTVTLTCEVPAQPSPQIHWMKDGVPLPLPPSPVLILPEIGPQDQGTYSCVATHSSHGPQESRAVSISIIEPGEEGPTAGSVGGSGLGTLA

What was measured:
Experiment in all cases: ELISA; r-venestatin, RAGE ligands or BSA (4 ug/mL) coated on wells; RAGE (1 ug/mL) added; bound RAGE detected with anti-RAGE antibodies; both purified
[1] = target: glyceraldehyde-bovine serum albumin (bovine) (UniProt P02769)
[2] = target: human HMGB1 (high-mobility group box 1 protein) (human) (UniProt P09429)
human S100A12 (human) = target: T1, human S100A12 (human) (UniProt P80511)
T1 sequence: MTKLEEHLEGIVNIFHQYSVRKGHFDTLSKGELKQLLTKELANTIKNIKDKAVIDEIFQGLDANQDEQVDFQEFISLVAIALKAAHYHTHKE

[3] = target: N^6-(carboxymethyl) lysine-BSA (bovine) (UniProt P02769)

In the case of “recombinant human RAGE (receptor for advanced glycation end products) (from UniProt Q15109 23-342) (receptor; glyceraldehyde-modified (advanced glycation end products); sites not stated; other documents disagree on this pair)”, the binding [1] is reported as “binds”.

For “recombinant human RAGE (receptor for advanced glycation end products) (from UniProt Q15109 23-342)”, the binding [2] was “binds” and the binding (human S100A12 (human)) was “binds”.

In the case of “recombinant human RAGE (receptor for advanced glycation end products) (from UniProt Q15109 23-342) (receptor; N6-(carboxymethyl)lysine; sites not stated; other documents disagree on this pair)”, the binding [3] is reported as “binds”.
